# Library screen at single concentrations

Measurements from “University of Dundee, Small-Polar-MMV Screening Library” (2021), ChEMBL document CHEMBL3988442.

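Whole-parasite assay of Trypanosoma brucei over 72 hours; the read-out is not stated. Tested at 10 µM. The record gives no direction; compounds that gave an IC50 in retests scored well above the rest, so higher reads as stronger inhibition. Values scatter widely below zero; nearly all retest evidence comes from the higher of the two concentrations used. Of about 2,700 compounds tested this way, about 14 (0.51%) reached 50% or more in at least one test.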

Values are the deposited “Percent Effect”, in %. The record does not define 0% and 100%; most values in the screen are far below 50% and negative numbers occur (in some assays of this library far below -100). This is an unselected part of the compounds tested.

Compound | Percent Effect
Cc1cc(C)cc(OCCN(C)C(=O)NC(C)c2nncn2C)c1 (centres undefined) | -4.17%
O=C(CN1CCC(c2ccnn2CCO)CC1)NCC1CCCCC1 | -1.583%
CNc1nc(CNC(=O)Nc2ccc([S+](C)[O-])c(F)c2)cs1 (centres undefined) | -12.21%
CN(Cc1ccccc1)C(=O)CN1CCCC(Cn2cncn2)C1 (centres undefined) | -18.8%
CC(OCC1CC1)C(=O)Nc1ncn(CC(=O)N2CCCCCC2)n1 (centres undefined) | -25.3%
Cc1noc(C)c1CN(C)C(=O)c1ccc(C(F)(F)F)nc1 | 40.52%
Cc1nn(C)cc1C(=O)N1CCCC(n2cncn2)C1 (centres undefined) | -47.95%
O=C(NCc1nn(-c2ccccc2)c2c1CCC2)NC1CCC(O)CC1 (centres undefined) | -10.45%
CCN(CC)Cc1ccc(C(=O)N2CCCC2Cn2cc(C)cn2)o1 (centres undefined) | -33.91%
Cc1cc(C)n(CC2CCCN2C(=O)c2ccc3nncn3c2)n1 (centres undefined) | -35.36%
CC(C)Oc1ccc(CNC(=O)CCN2C(=O)CCC2=O)cc1F | -53.5%
CC(C)(C)N1CCN(C(=O)Nc2cc(C(F)(F)F)c[nH]c2=O)CC1 | -45.49%
O=C(c1nccc2ccccc12)N1CCCCC1Cn1cccn1 (centres undefined) | -43.53%
COc1c(CNCC(O)c2ccccc2)c(C(C)C)nn1C (centres undefined) | -83.03%
CCn1ccnc1CN1CCCN(C(=O)c2ccsc2)CC1 | -16.29%
CCc1nnc(CN2CCC(N3CCN(CC)C3=O)CC2)o1 | -53.69%
Cc1nc(CN2CCCC2c2noc(C3CC3)n2)oc1C (centres undefined) | -44.83%
CCN1CCN(C2CCN(Cc3nnc(C4CC4)o3)CC2)C1=O | -67.4%
Cc1nc(CN2CCCN(Cc3nccn3C(C)C)CC2)no1 | -6.071%
Cc1cnn(CC2CCCCN2C(=O)c2ccc3nncn3c2)c1 (centres undefined) | -16.42%
COc1cccc(N2CCN(C(=O)CN(C)c3cnccn3)CC2)c1 | -26.46%
COc1ccccc1CC(=O)N1CCCC(CNS(C)(=O)=O)C1 (centres undefined) | -62.71%
CN(C)c1cc(CNC(=O)c2cnccn2)ccn1 | -25.73%
CNc1snc(C)c1C(=O)N1CCCC(n2nc(C)nc2C)C1 (centres undefined) | -54.21%
Cc1cnn(CCNCc2ccc(OCc3ccncc3)cc2)c1 | 19.12%
O=C(CCc1cccs1)N1CCCC(n2ccnc2)C1 (centres undefined) | -23.55%
CCn1cnnc1CNC(=O)N1CCC(CN2CCCCCC2)CC1 | 11.81%
COc1ccnc(N2CCN(C(=O)COCC(F)(F)F)CC2)n1 | -78.63%
CC(C)Oc1ccc(CNC(=O)CN(C)S(C)(=O)=O)cc1F | -71.65%
Cc1cc(C(=O)N2CCc3nnc(N)cc3C2)c(C)n1-c1ccccc1 | -23.32%
CCOc1ncccc1C(=O)NC1CCCN(c2ncccn2)C1 (centres undefined) | -46.3%
Cc1nc(C2CCCN(C(=O)c3ccc(S(C)(=O)=O)cc3)C2)no1 (centres undefined) | -24.95%
Cc1nnc(NC(=O)CN2CCCC2c2noc(C(C)C)n2)s1 (centres undefined) | -14.69%
Cc1cccnc1NC(=O)c1ccc(-n2ncc(C#N)c2N)cc1 | -4.745%
COc1cccc(OCC(=O)NS(=O)(=O)c2ccc(Br)s2)c1 | -62.11%
Cc1cc(N2CCC(C(=O)NC3CC3)CC2)nc(-c2ccncc2)n1 | -49.25%
Cc1ccc(C(O)CNC(=O)Nc2cc(C)nn2C)cc1 (centres undefined) | -33.65%
Cc1noc(C)c1CNC(=O)N1CCC(Cc2cnn(C)c2)C1 (centres undefined) | -32.46%
COCc1nc(C(=O)N2CCCC(n3ccnc3C)C2)cs1 (centres undefined) | -45.57%
O=C(CC1=CCCCC1)Nc1ncn(CC(=O)N2CCCCCC2)n1 | -48.79%
Cc1cn2nc(N3CCCC3Cn3nc(C)nc3C)sc2n1 (centres undefined) | -34.16%
Cc1cnn(CC2CN(c3nc4ccccc4o3)CCO2)c1 (centres undefined) | -1.825%
COc1cccc(CN2CCCC(c3cc(C(N)=O)[nH]n3)C2)c1 (centres undefined) | -39.82%
O=C(CCCOc1cccc(F)c1)N1CCCC(n2cccn2)C1 (centres undefined) | -57.6%
c1cnc(-c2nc(CN3CCCC(N4CCCC4)C3)cs2)nc1 (centres undefined) | -57.22%
CCn1cc(NC(=O)NCc2ccc(CO)c(F)c2)cn1 | -35.38%

For reference, 2 entries once more:

- COc1ccnc(N2CCN(C(=O)COCC(F)(F)F)CC2)n1 | -78.63%
- CNc1nc(CNC(=O)Nc2ccc([S+](C)[O-])c(F)c2)cs1 (centres undefined) | -12.21%